The values below come from PMC12772503.

First the molecules themselves.
B1: myc-Syd-C1 (Syd^530-1226) (domain or fragment, UniProt Q9GQF1 530-1226)
chain: GPMFRHTGGGSPAHSHGSPSRGSGGGDNRLALTSGQPPVHPASAGLANALIMPKDYAEEGSSERISARRREQYRQLRAHVQKEDGRLHAYGWSLPINKASQEANPNRHSGGVPVPVYCNPLAEASPHMKVFCAAGVNLHGGFTKNGQSLIPANSPYAPKSTLKIAEITSPTADQSMEALDRQMARVSLETLEPETQLSSFVWICTSTHAASTVSVVDANQSATVLDAFPICASHLLCIASVQGAMESDYALLEQSEVVKAGEMLQRPGEGTELLGKVEFVRVKPKSDDEQNSNEKQQQEEEEAKEATEKSNEQLPAVSAEEPLGNVEAIKIRQPLPGAPQRLSTDGNQTNNNNNSSSSSNLLFATKSLNPILETKDRDEPAMSSVGPTMWLGAQDGWLYVHSSVGRWHECLHRVLLPDAVLAIVHVEARVVVALANAQLAVFRRQTDGQWDLNSYHLVTLGDRNHSIRCLCVAGERIWAAHRNKIFIVDPVSLNIVHSLDAHPRKESQVRQMAATGAGVWVSIRLDSTLRLYNTHTFEHKQDVDIEPYVSKMLGTGKLGFSFVRITALMVSCNRLWIGTSNGVIISVPLAEVQPKSSSDPHGQMPLCCMANAQLSFHGHRDAVKFFVSVPMLQQPNLNGGLTFTNKRPDMLVMCGGEGYIDFRINDNDMENSIQLEPNQTIENRGDKSYLIVWHVSQ
B2: myc-Syd-N2 (Syd^1-529) (domain or fragment, UniProt Q9GQF1 1-529)
chain: MMDNDDALLNNGGPQSGAETVYGTEDNNMVMSEKNEQVVSIVQQLAGSIYQEFERMINRYDEDVVKNLMPLLVNVLECLDASYRINQEQDVEVELLREDNEQLVTQYEREKSARKQSEQKLLEAEDLAEQENKELATRLESVESIVRMLELKHKNSLEHASRLEEREADLKKEYNKLHERYTELFKNHVDYMERTKMLMGSTHSQMSTASERMDVSRARLNPVARSSGPVSYGFASLENSVMLDTETICSVGSQSDDSGPPSLQNELDNLSGTLERGAATDALQQQHHATSPQSPDSSPVVPNVPTNVGRSTTKKEQRSDNNLYQELSFQDNEESEENEIVTGSWVHPGEYASSANDNYFGMGKEVENLIMENNELLATKNALNIVKDDLIVKVDELTGEVEIVREELNAMQQSRTKLRQRISELEDELKKAKEQVKQQNTEQEENDVPLAQRKRFTRVEMAMVLMERNQYKERLMELQEAVRLTEILRASRTVDNLDRKSKQSIWKYFSNLFTPSNRPTERVADGLGG
B3: V5-tagged DLIC (protein, UniProt Q9VZ20 1-493)
chain: MAMNSGTQTNALTSSFTMKKKDAAAEKENLWSAILNEVQTQGSTKLPSNKSVLVLGDNATGKTTLIAKLQGVEDPKKGSGLEYAYIDVKDEYRDDMTRLGVWVLDGDPGHTNLLHYALNETNYAHTLVILTVSMTQPWGWLEQLNHWIKVLGQHIDSLQLDAKEKEAARQRLTTTWQSYCEVGDDLDPGSPVKRTMRNNSIDEDDLLPLTEDALITNLGLDIVVVVTKTDYMTTLEKEYEYRDEHFDFIQQWIRNFCLRHGTSLFYTSVKEDKNCDVLYKYLTHRIYGLPFRTPALVVEKDAVLIPAGWDSLKKISILYENMHGVKAENPYTDIIKSPPTRKAVSNREAEVQTEDEQAFLARQQEILKQGDQVRGESPLRSQGVGSNKSGPRTPGTTGQSSPKKIDPKLTPATPGAEGVLANFFNSLLHKKSGSPGTGGPGGAGNPAGPGRTANGTDAVMTPEKLAVRTDAAAELDRLSRSVKKEIDMSQSEC
B4: myc-tagged full-length Syd (protein, UniProt Q9GQF1 1-1227)
chain: MMDNDDALLNNGGPQSGAETVYGTEDNNMVMSEKNEQVVSIVQQLAGSIYQEFERMINRYDEDVVKNLMPLLVNVLECLDASYRINQEQDVEVELLREDNEQLVTQYEREKSARKQSEQKLLEAEDLAEQENKELATRLESVESIVRMLELKHKNSLEHASRLEEREADLKKEYNKLHERYTELFKNHVDYMERTKMLMGSTHSQMSTASERMDVSRARLNPVARSSGPVSYGFASLENSVMLDTETICSVGSQSDDSGPPSLQNELDNLSGTLERGAATDALQQQHHATSPQSPDSSPVVPNVPTNVGRSTTKKEQRSDNNLYQELSFQDNEESEENEIVTGSWVHPGEYASSANDNYFGMGKEVENLIMENNELLATKNALNIVKDDLIVKVDELTGEVEIVREELNAMQQSRTKLRQRISELEDELKKAKEQVKQQNTEQEENDVPLAQRKRFTRVEMAMVLMERNQYKERLMELQEAVRLTEILRASRTVDNLDRKSKQSIWKYFSNLFTPSNRPTERVADGLGGGPMFRHTGGGSPAHSHGSPSRGSGGGDNRLALTSGQPPVHPASAGLANALIMPKDYAEEGSSERISARRREQYRQLRAHVQKEDGRLHAYGWSLPINKASQEANPNRHSGGVPVPVYCNPLAEASPHMKVFCAAGVNLHGGFTKNGQSLIPANSPYAPKSTLKIAEITSPTADQSMEALDRQMARVSLETLEPETQLSSFVWICTSTHAASTVSVVDANQSATVLDAFPICASHLLCIASVQGAMESDYALLEQSEVVKAGEMLQRPGEGTELLGKVEFVRVKPKSDDEQNSNEKQQQEEEEAKEATEKSNEQLPAVSAEEPLGNVEAIKIRQPLPGAPQRLSTDGNQTNNNNNSSSSSNLLFATKSLNPILETKDRDEPAMSSVGPTMWLGAQDGWLYVHSSVGRWHECLHRVLLPDAVLAIVHVEARVVVALANAQLAVFRRQTDGQWDLNSYHLVTLGDRNHSIRCLCVAGERIWAAHRNKIFIVDPVSLNIVHSLDAHPRKESQVRQMAATGAGVWVSIRLDSTLRLYNTHTFEHKQDVDIEPYVSKMLGTGKLGFSFVRITALMVSCNRLWIGTSNGVIISVPLAEVQPKSSSDPHGQMPLCCMANAQLSFHGHRDAVKFFVSVPMLQQPNLNGGLTFTNKRPDMLVMCGGEGYIDFRINDNDMENSIQLEPNQTIENRGDKSYLIVWHVSQR
B5: V5-tagged Arl8 (protein, UniProt Q9VHV5 1-186)
chain: MLALINRILEWFKSIFWKEEMELTLVGLQFSGKTTFVNVIASGQFAEDMIPTVGFNMRKITRGNVTIKVWDIGGQPRFRSMWERYCRGVNAIVYMVDAADLDKLEASRNELHSLLDKPQLAGIPVLVLGNKRDLPGALDETGLIERMNLSSIQDREICCYSISCKEKDNIDITLQWLIQHSKSQSR

Results are given in words; binding and its absence hold for the method and conditions named. In cells and extracts the contact can be indirect. Binding can be weak; no strength is given. Tags and fused reporters may be left off the sequences shown.

The target of the assay is HA-tagged RUFY (Drosophila). Description: co-IP; lysates (1.0 mg/ml) of transfected HEK293 cells on Pierce anti-HA magnetic beads, 2 h, 4°C; 20 mM HEPES pH 7.4, 130 mM NaCl, 2 mM MgCl2, 0.1% saponin; 60 uM GppNHp with Rab2(wt) and Rab2[Q65L] but not Rab2[S20N]; eluted with 100 mM NaOH or HA peptide; Western blot; in Fig. S2 E cells treated with 2 uM MLi-2 for 2 h or co-transfected with LRRK2^G2019S. In general terms: A western blot detects proteins with antibodies after separation by electrophoresis.
For B1, the binding entry is “binds”. The entry for B2 is “no binding”.

For the molecule B3, the binding entry is “binds”. Take B4: the binding result was “binds”. On to B5, for which the binding entry is reported as “binds”.
